These are yes or no findings as the source states them, for the method shown. Binding seen in cells or lysates may run through a third protein. These calls come from enrichment with a bait or labelling near it, and not all partners need be listed.

Protein sequences, listed by entry. Tags and fused reporters are not part of them.
UniProt P61586: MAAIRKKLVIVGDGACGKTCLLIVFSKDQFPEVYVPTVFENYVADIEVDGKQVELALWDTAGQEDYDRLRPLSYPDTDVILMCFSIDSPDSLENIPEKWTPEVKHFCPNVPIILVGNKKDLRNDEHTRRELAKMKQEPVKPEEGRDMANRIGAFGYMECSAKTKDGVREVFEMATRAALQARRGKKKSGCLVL
UniProt O75116: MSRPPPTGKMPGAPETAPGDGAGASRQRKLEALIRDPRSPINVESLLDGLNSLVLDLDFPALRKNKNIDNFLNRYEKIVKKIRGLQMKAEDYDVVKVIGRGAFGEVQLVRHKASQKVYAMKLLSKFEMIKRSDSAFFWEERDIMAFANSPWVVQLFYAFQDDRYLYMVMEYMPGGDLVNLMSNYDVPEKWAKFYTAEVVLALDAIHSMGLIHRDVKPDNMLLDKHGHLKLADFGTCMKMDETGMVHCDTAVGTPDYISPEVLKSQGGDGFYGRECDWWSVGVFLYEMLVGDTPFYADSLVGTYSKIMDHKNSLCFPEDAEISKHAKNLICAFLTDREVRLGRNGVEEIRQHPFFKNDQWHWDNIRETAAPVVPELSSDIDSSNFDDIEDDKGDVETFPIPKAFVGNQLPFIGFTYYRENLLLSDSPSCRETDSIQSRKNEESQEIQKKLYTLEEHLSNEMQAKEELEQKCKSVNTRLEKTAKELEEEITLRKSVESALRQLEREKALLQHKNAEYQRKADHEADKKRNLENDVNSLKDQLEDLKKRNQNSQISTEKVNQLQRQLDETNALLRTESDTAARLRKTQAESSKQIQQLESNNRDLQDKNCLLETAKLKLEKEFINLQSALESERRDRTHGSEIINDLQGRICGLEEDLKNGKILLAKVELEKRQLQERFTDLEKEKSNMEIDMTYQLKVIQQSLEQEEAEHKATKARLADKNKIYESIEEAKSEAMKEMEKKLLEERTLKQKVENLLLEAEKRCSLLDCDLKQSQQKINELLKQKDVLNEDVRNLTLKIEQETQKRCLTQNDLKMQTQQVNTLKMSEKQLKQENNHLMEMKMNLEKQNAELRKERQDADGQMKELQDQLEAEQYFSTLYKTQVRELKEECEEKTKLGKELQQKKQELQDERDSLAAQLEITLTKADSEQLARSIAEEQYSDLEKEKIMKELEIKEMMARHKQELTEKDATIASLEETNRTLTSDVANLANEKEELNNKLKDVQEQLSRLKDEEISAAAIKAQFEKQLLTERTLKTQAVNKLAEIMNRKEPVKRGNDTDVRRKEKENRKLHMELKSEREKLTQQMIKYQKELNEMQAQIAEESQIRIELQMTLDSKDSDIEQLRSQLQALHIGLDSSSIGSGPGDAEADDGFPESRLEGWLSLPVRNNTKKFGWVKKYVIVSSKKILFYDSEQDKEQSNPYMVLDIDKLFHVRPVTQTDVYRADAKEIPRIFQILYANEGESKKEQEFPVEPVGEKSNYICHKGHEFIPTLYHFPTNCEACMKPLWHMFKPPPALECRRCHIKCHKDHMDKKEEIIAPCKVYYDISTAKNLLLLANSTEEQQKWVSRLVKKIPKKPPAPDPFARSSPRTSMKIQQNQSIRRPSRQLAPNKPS
UniProt Q16513: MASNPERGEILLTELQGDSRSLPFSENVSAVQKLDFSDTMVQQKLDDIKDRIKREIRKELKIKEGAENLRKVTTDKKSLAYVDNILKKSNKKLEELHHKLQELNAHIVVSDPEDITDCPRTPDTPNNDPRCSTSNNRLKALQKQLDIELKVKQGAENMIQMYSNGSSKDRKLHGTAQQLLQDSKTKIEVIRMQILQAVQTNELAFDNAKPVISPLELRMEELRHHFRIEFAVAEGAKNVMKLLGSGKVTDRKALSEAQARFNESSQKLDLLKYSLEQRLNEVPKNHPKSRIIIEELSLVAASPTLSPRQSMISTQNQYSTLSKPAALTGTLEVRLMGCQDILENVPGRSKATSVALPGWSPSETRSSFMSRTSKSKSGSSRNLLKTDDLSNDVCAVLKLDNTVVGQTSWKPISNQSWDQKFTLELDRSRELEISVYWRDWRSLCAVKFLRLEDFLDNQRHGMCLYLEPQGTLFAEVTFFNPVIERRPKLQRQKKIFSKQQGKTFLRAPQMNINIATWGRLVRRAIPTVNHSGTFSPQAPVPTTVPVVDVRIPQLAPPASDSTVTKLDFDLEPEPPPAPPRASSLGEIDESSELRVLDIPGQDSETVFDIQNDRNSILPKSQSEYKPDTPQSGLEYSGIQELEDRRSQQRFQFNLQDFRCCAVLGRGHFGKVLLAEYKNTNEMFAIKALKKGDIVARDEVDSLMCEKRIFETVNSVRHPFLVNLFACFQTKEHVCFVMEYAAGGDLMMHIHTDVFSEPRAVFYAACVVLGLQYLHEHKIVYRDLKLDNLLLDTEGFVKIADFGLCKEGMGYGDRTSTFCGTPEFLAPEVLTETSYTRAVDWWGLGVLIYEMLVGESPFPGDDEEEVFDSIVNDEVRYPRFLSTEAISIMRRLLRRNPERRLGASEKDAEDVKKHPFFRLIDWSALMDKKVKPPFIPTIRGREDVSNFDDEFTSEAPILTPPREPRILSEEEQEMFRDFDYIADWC

Binding data for 2 substances are collected here from PMC8405734.

The target in the experiment is GST-RhoA (UniProt P61586). Kind of experiment: affinity purification with mass spectrometry; GST (light) or GST-RhoA (heavy) on glutathione-sepharose beads, ~2 mg SILAC-labelled A375M2 lysate for 1 h; 50 mM Tris-HCl pH 7.5, 150 mM NaCl, 1% NP-40, 10 mM EDTA; LC-MS/MS; hits at 4-fold or more enrichment over GST; only the target purified.

As for ROCK2 (from UniProt O75116 1-1388), the binding entry is “binds”.
Turning to “serine/threonine-protein kinase N2 (PKN2) (from UniProt Q16513 1-984)”, the binding result is “binds”.
